This is an account of results in publication PMC6363986.

By UniProt entry, the sequences of proteins in these tests, tags left out. Where a name states a change or a piece, a line headed by the entry shows the natural chain unless it says otherwise.
UniProt P42736: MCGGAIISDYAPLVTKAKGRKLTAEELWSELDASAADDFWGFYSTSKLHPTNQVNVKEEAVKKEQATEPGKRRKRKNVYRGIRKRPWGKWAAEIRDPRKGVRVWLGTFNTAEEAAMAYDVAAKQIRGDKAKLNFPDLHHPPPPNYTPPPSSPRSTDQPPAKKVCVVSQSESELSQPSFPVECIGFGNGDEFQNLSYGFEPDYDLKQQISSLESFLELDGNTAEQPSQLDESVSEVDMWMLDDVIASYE
UniProt Q9LND1: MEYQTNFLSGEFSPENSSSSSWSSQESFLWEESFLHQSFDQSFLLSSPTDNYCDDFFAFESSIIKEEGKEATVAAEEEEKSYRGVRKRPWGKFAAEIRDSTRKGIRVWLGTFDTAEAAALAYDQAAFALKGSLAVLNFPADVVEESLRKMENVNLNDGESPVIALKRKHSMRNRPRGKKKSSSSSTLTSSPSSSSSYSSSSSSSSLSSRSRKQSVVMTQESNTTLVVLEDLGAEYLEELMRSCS

Results are given in words; binding and its absence hold for the method and conditions named. For part of these data: Binding seen in cells or lysates may run through a third protein. Some entries that bind do so weakly or less than the wild type.

The target in assay [1] is full-length RAP2.3 fused with GAL4 BD (Arabidopsis thaliana) (UniProt P42736). Briefly: two-hybrid; yeast two-hybrid; ORA59Δ1-60 fused with GAL4 AD, RAP2.3 with GAL4 BD; selective media SD/-AHLT and X-α-Gal.
The target of assay [2] is RAP2.3^CE (RAP2.3 fused with YFP^CE) (Arabidopsis thaliana) (UniProt P42736). The assay is described as follows: split reporter; BiFC; YFP^NE and YFP^CE fusions expressed in Arabidopsis protoplasts; YFP fluorescence under a confocal microscope.
The target of assay [3] is ORA59-GST (Arabidopsis thaliana) (UniProt Q9LND1). The assay is described as follows: pull-down; in vitro GST pull-down; GST or ORA59-GST incubated with RAP2.3-His, precipitated with glutathione sepharose 4B beads; immunoblotting with anti-GST and anti-His. For orientation: A western blot detects proteins with antibodies after separation by electrophoresis.

As for “ORA59 with N-terminal 60 amino acids deleted (ORA59Δ1-60), fused with GAL4 AD (from UniProt Q9LND1 61-244) (domain or fragment)”, in assay [1], the binding result is “binds”.

As to “ORA59^NE (ORA59 fused with YFP^NE) (from UniProt Q9LND1 1-244)”, the binding result in assay [2] is on record as “binds”. RAP2.3-His (from UniProt P42736 1-248): in assay [3], the binding entry is on record as “binds”.
